According to the supplement of paper PMC6078165:

Tested on: MDAMB468
Experiment: relative JC-1 red fluorescence (viability) vs pre-drug, coculture with fibroblast (fraction); higher = more viable cancer cells
Experimental: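 JC-1 labelled TNBC cells cocultured 1:1 (1,500 cells each) with CellTrace Violet stained primary or stromal fibroblasts in 384-well plates in FluoroBrite medium, treated with one of 42 anticancer drugs at 0.1, 1, 10 or 100 uM. JC-1 red fluorescence (mitochondrial integrity in cancer cells only) was read by plate reader every 8 h for 72 h. Values are normalised to each well's pre-drug value. The stock of one drug was tenfold lower, so its dose labels may be too high.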

CC/C(=C(\c1ccccc1)c1ccc(OCCN(C)C)cc1)c1ccccc1 [Tamoxifen]
relative JC-1 red fluorescence
Details	8 h	16 h	24 h	32 h	40 h	48 h	56 h	64 h	72 h
0.1 µM, coculture fibroblast: C12385	0.904	0.835	0.841	0.7994	0.7658	0.76921	0.7332	0.7168	0.716
0.1 µM, coculture fibroblast: H6013	0.898	0.835	0.814	0.805	0.766	0.767	0.739	0.727	0.686
0.1 µM, coculture fibroblast: H6019	0.816	0.801	0.788	0.747	0.699	0.699	0.651	0.62	0.597
0.1 µM, coculture fibroblast: H6076	0.951	0.905	0.891	0.905	0.839	0.836	0.801	0.792	0.855
0.1 µM, coculture fibroblast: H6231	0.81	0.95	0.877	0.825	0.756	0.724	0.67	0.645	0.631
0.1 µM, coculture fibroblast: HADF	0.90003	0.82	0.781	0.784	0.727	0.717	0.67	0.658	0.617
0.1 µM, coculture fibroblast: HCFa	0.888	0.84	0.796	0.767	0.69	0.676	0.622	0.584	0.545
0.1 µM, coculture fibroblast: HCPF	0.8999	0.976	0.8501	0.862	0.7936	0.7703	0.722	0.71719	0.711
0.1 µM, coculture fibroblast: HHSteC	0.908	0.831	0.796	0.754	0.716	0.716	0.653	0.631	0.585
0.1 µM, coculture fibroblast: HMF	0.8529	0.94755	0.874	0.849	0.7798	0.75951	0.7025	0.6802	0.66656
0.1 µM, coculture fibroblast: HPFa	0.941	0.9001	0.841	0.797	0.756	0.743	0.672	0.64	0.565
0.1 µM, coculture fibroblast: HUF	0.9	0.8074	0.743	0.68	0.631	0.609	0.569	0.541	0.516
0.1 µM, coculture fibroblast: Hs5	0.894	0.92	0.9048	0.9038	0.8345	0.81627	0.7903	0.7586	0.788
0.1 µM, coculture fibroblast: Hs27A	0.86232	0.8099	0.7844	0.782	0.7371	0.738	0.6888	0.671	0.6119
0.1 µM, coculture fibroblast: Hs343T	0.917	0.867	0.884	0.8746	0.808	0.782	0.728	0.714	0.69
0.1 µM, coculture fibroblast: WS1	0.8887	0.772	0.727	0.672	0.64	0.614	0.587	0.561	0.555
1 µM, coculture fibroblast: C12385	0.881	0.824	0.796	0.7438	0.70613	0.7	0.6563	0.6294	0.61395
1 µM, coculture fibroblast: H6013	0.9036	0.87	0.83506	0.835	0.816	0.83	0.801	0.787	0.739
1 µM, coculture fibroblast: H6019	0.836	0.803	0.7932	0.7491	0.7128	0.706	0.6585	0.6207	0.6004
1 µM, coculture fibroblast: H6076	0.911	0.956	0.963	0.915	0.94	0.942	0.927	0.921	0.922
1 µM, coculture fibroblast: H6231	0.844	0.917	0.832	0.82	0.759	0.739	0.697	0.669	0.66
1 µM, coculture fibroblast: HADF	0.92013	0.8647	0.824	0.8236	0.779	0.775	0.731	0.723	0.669
1 µM, coculture fibroblast: HCFa	0.856	0.8325	0.766	0.749	0.688	0.674	0.624	0.588	0.536
1 µM, coculture fibroblast: HCPF	0.8974	0.8816	0.8267	0.83371	0.7639	0.733	0.7004	0.6981	0.694
1 µM, coculture fibroblast: HHSteC	0.906	0.866	0.825	0.8	0.757	0.751	0.689	0.657	0.613
1 µM, coculture fibroblast: HMF	0.831	0.936	0.892	0.871	0.8075	0.7903	0.739	0.725	0.712
1 µM, coculture fibroblast: HPFa	0.9356	0.89974	0.857	0.811	0.783	0.779	0.703	0.671	0.586
1 µM, coculture fibroblast: HUF	0.941	0.8646	0.8154	0.747	0.6933	0.6709	0.6255	0.6045	0.578
1 µM, coculture fibroblast: Hs5	0.9858	0.901	0.89	0.834	0.8	0.794	0.897	0.876	0.76
1 µM, coculture fibroblast: Hs27A	0.8826	0.85	0.817	0.824	0.781	0.775	0.737	0.712	0.66
1 µM, coculture fibroblast: Hs343T	0.8989	0.93	0.9	0.8994	0.821	0.808	0.773	0.7492	0.735
1 µM, coculture fibroblast: WS1	0.888	0.802	0.764	0.698	0.659	0.632	0.6	0.581	0.571
10 µM, coculture fibroblast: C12385	0.8975	0.9585	0.747	0.779	0.826	0.825	0.7201	0.7492	0.727
10 µM, coculture fibroblast: H6013	0.907	0.896	0.769	0.9202	0.861	0.849	0.818	0.886	0.825
10 µM, coculture fibroblast: H6019	0.885	0.94	0.91	0.931	0.831	0.87	0.833	0.906	0.873
10 µM, coculture fibroblast: H6076	0.952	0.755	0.855	0.755	0.875	0.813	0.908	0.801	0.841
10 µM, coculture fibroblast: H6231	0.846	0.839	0.936	0.923	0.892	0.89	0.838	0.811	0.802
10 µM, coculture fibroblast: HADF	0.921	0.881	0.842	0.894	0.811	0.817	0.811	0.834	0.813
10 µM, coculture fibroblast: HCFa	0.883	0.88	0.91	0.849	0.947	0.871	0.851	0.834	0.935
10 µM, coculture fibroblast: HCPF	0.8694	0.873	0.77	0.792	0.738	0.859	0.775	0.839	0.743
10 µM, coculture fibroblast: HHSteC	0.912	0.856	0.81	0.8537	0.847	0.822	0.819	0.876	0.784
10 µM, coculture fibroblast: HMF	0.8728	0.746	0.73	0.828	0.817	0.847	0.756	0.842	0.821
10 µM, coculture fibroblast: HPFa	0.935	0.9897	0.78	0.737	0.861	0.727	0.855	0.801	0.7401
10 µM, coculture fibroblast: HUF	0.9346	0.9621	0.89	0.7699	0.791	0.835	0.832	0.8145	0.855
10 µM, coculture fibroblast: Hs5	0.899	0.854	0.767	0.826	0.7412	0.872	0.868	0.785	0.897
10 µM, coculture fibroblast: Hs27A	0.86563	0.956	0.854	0.799	0.854	0.746	0.715	0.781	0.8059
10 µM, coculture fibroblast: Hs343T	0.902	0.825	0.7186	0.9316	0.7459	0.858	0.845	0.838	0.879
10 µM, coculture fibroblast: WS1	0.955	0.821	0.907	0.816	0.825	0.883	0.929	0.9407	0.913

The reference is the same well before dosing, and untreated signal decays as well.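 Labels refer to human fibroblasts, largely primary: uterine (C12385, HUF), lung (H6013), bone (Hs27A), adrenal (HADF), skin (WS1), plus mammary HMF and breast cancer-associated Hs343T. Cancer lines are basal-like or mesenchymal-like triple-negative breast cancer. The paper counts as hits responses shifting over 3x the replicate standard deviation. The tissue of the other fibroblasts is not given here.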
